Earlier results in US9415193B2, “Eluting medical devices” (W. L. Gore & Associates, Inc., priority 2011, dated 2016).

## CC(=O)O[C@H]1C(=O)[C@@]2(C)[C@H]([C@H](OC(=O)c3ccccc3)[C@]3(O)C[C@H](OC(=O)[C@H](O)[C@@H](NC(=O)c4ccccc4)c4ccccc4)C(C)=C1C3(C)C)[C@]1(OC(C)=O)CO[C@@H]1C[C@@H]2O [paclitaxel]
hydroxypropyl-β-cyclodextrin at 60% (w/v in water)
  solubilized concentration in solution: approximately 4 mM
Neat DI-water, room temperature
  solubility limit in water: about 0.4 μM
